Source: PMC8259959
These are yes or no findings as the source states them, for the method shown. Binding seen in cells or lysates may run through a third protein. Some results given as binding are weak or reduced against the parent protein; the word gives no strength.

Chains of the proteins cited; added tags and fusions are not shown. Lines headed by an entry give the natural chain unless they say otherwise; changes in a name come on top. Residues count along the entry.
UniProt Q29443, residues 20-704: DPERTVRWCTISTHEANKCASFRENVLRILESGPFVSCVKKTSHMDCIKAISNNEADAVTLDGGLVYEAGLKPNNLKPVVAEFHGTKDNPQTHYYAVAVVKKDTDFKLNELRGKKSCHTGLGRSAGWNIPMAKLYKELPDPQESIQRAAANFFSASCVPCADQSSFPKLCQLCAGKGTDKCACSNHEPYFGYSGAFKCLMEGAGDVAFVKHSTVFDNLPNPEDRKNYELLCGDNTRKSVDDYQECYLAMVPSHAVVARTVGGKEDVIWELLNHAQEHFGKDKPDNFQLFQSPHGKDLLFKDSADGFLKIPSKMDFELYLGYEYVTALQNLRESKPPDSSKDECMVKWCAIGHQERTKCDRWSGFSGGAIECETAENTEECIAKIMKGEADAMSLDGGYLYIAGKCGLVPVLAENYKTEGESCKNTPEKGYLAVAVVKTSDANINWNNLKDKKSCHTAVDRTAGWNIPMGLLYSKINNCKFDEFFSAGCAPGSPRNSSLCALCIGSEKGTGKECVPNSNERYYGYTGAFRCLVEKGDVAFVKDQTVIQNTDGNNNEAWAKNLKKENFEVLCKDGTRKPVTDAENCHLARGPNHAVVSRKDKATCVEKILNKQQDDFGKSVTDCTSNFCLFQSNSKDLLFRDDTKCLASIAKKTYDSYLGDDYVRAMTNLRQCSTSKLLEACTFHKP
UniProt Q8WPU1: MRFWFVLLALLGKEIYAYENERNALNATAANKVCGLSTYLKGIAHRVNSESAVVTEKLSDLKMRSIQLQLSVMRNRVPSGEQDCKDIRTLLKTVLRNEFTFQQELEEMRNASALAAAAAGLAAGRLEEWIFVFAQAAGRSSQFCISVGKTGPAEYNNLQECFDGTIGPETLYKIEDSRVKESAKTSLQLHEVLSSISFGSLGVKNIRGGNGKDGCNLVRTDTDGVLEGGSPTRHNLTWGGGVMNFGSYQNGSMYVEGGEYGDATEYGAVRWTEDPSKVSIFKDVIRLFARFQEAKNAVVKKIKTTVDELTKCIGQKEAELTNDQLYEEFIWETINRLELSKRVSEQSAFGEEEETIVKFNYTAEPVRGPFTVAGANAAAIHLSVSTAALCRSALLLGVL

Target: holo-transferrin (UniProt Q29443)
Assay: pull-down; holo-Tf conjugated beads; lysates of TfR RNAi cells, un-induced (tet -) or induced (tet +), at time points; detection by anti-TfR blot; only the target purified

For “Trypanosoma brucei transferrin receptor (TfR), heterodimer of ESAG6 and ESAG7 (from UniProt Q8WPU1 18-376; Q8WPU2 18-338) (complex)”, the binding was “binds”.
